Data taken from PMC7694386.

Protein sequences, listed by entry. Tags and fused reporters are not part of them.
UniProt O95817: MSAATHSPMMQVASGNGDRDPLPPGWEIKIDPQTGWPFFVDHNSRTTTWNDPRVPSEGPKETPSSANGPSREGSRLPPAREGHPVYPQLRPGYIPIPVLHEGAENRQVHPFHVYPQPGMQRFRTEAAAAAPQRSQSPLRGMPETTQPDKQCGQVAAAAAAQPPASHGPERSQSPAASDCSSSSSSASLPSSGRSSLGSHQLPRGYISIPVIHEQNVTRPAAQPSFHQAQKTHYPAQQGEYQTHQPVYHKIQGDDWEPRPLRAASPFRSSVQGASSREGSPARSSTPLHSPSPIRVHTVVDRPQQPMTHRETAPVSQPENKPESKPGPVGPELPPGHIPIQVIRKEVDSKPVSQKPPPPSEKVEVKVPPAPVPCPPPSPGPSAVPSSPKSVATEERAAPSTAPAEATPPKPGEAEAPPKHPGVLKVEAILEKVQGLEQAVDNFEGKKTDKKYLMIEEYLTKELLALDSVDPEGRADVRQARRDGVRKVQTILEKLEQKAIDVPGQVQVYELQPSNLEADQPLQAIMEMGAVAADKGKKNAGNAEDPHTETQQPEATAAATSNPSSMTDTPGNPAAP

Target: BAG3 (BCL-2-associated athanogene 3) (human (endogenous in HEK293T)) (UniProt O95817)
Experiment: affinity purification with mass spectrometry; endogenous BAG3 immunoprecipitated with anti-BAG3 antibody and Protein A/G magnetic beads from HEK293T lysate; cells treated with DMSO (basal) or 10 µM MG132 for 6 h; IgG IP (MG132_IgG) as control; label-free quantification, three biological replicates

Row | Binder | binding
1 | DnaJ homolog subfamily C member 7 (protein, UniProt Q99615 1-494) MAAAAECDVVMAATEPELLDDQEAKREAETFKEQGNAYYAKKDYNEAYNYYTKAIDMCPKNASYYGNRAATLMMLGRFREALGDAQQSVRLDDSFVRGHLREGKCHLSLGNAMAACRSFQRALELDHKNAQAQQEFKNANAVMEYEKIAETDFEKRDFRKVVFCMDRALEFAPACHRFKILKAECLAMLGRYPEAQSVASDILRMDSTNADALYVRGLCLYYEDCIEKAVQFFVQALRMAPDHEKACIACRNAKALKAKKEDGNKAFKEGNYKLAYELYTEALGIDPNNIKTNAKLYCNRGTVNSKLRKLDDAIEDCTNAVKLDDTYIKAYLRRAQCYMDTEQYEEAVRDYEKVYQTEKTKEHKQLLKNAQLELKKSKRKDYYKILGVDKNASEDEIKKAYRKRALMHHPDRHSGASAEVQKEEEKKFKEVGEAFTILSDPKKKTRYDSGQDLDEEGMNMGDFDPNNIFKAFFGGPGGFSFEASGPGNFFFQFG | binds
2 | Transcription factor AP-4 (protein, UniProt Q01664 1-338) MEYFMVPTQKVPSLQHFRKTEKEVIGGLCSLANIPLTPETQRDQERRIRREIANSNERRRMQSINAGFQSLKTLIPHTDGEKLSKAAILQQTAEYIFSLEQEKTRLLQQNTQLKRFIQELSGSSPKRRRAEDKDEGIGSPDIWEDEKAEDLRREMIELRQQLDKERSVRMMLEEQVRSLEAHMYPEKLKVIAQQVQLQQQQEQVRLLHQEKLEREQQQLRTQLLPPPAPTHHPTVIVPAPPPPPSHHINVVTMGPSSVINSVSTSRQNLDTIVQAIQHIEGTQEKQELEEEQRRAVIVKPVRSCPEAPTSDTASDSEASDSDAMDQSREEPSGDGELP | binds
3 | Protein Njmu-R1 (protein, UniProt Q9HAS0 1-396) MLPSLQESMDGDEKELESSEEGGSAEERRLEPPSSSHYCLYSYRGSRLAQQRGDSEDGSPSGTNAETPSGDDFSLSLADTNLPSEVEPELRSFIAKRLSRGAVFEGLGNVASVELKIPGYRVGCYYCLFQNEKLLPETVTIDSERNPSEYVVCFLGGSEKGLELFRLELDKYIQGLKNNMNCEARGLESHIKSYLSSWFEDVVCPIQRVVLLFQEKLTFLLHAALSYTPVEVKESDEKTKRDINRFLSVASLQGLIHEGTMTSLCMAMTEEQHKSVVIDCSSSQPQFCNAGSNRFCEDWMQAFLNGAKGGNPFLFRQVLENFKLKAIQDTNNLKRFIRQAEMNHYALFKCYMFLKNCGSGDILLKIVKVEHEEMPEAKNVIAVLEEFMKEALDQSF | binds
4 | U3 small nucleolar RNA-interacting protein 2 (protein, UniProt O43818 1-475) MSATAAARKRGKPASGAGAGAGAGKRRRKADSAGDRGKSKGGGKMNEEISSDSESESLAPRKPEEEEEEELEETAQEKKLRLAKLYLEQLRQQEEEKAEARAFEEDQVAGRLKEDVLEQRGRLQKLVAKEIQAPASADIRVLRGHQLSITCLVVTPDDSAIFSAAKDCSIIKWSVESGRKLHVIPRAKKGAEGKPPGHSSHVLCMAISSDGKYLASGDRSKLILIWEAQSCQHLYTFTGHRDAVSGLAFRRGTHQLYSTSHDRSVKVWNVAENSYVETLFGHQDAVAALDALSRECCVTAGGRDGTVRVWKIPEESQLVFYGHQGSIDCIHLINEEHMVSGADDGSVALWGLSKKRPLALQREAHGLRGEPGLEQPFWISSVAALLNTDLVATGSHSSCVRLWQCGEGFRQLDLLCDIPLVGFINSLKFSSSGDFLVAGVGQEHRLGRWWRIKEARNSVCIIPLRRVPVPPAAGS | binds

Other lines, results leading:

Row | binding | Binder
5 | binds | EIF5B (protein, UniProt O60841 1-1220) MGKKQKNKSEDSTKDDIDLDALAAEIEGAGAAKEQEPQKSKGKKKKEKKKQDFDEDDILKELEELSLEAQGIKADRETVAVKPTENNEEEFTSKDKKKKGQKGKKQSFDDNDSEELEDKDSKSKKTAKPKVEMYSGSDDDDDFNKLPKKAKGKAQKSNKKWDGSEEDEDNSKKIKERSRINSSGESGDESDEFLQSRKGQKKNQKNKPGPNIESGNEDDDASFKIKTVAQKKAEKKERERKKRDEEKAKLRKLKEKEELETGKKDQSKQKESQRKFEEETVKSKVTVDTGVIPASEEKAETPTAAEDDNEGDKKKKDKKKKKGEKEEKEKEKKKGPSKATVKAMQEALAKLKEEEERQKREEEERIKRLEELEAKRKEEERLEQEKRERKKQKEKERKERLKKEGKLLTKSQREARARAEATLKLLQAQGVEVPSKDSLPKKRPIYEDKKRKKIPQQLESKEVSESMELCAAVEVMEQGVPEKEETPPPVEPEEEEDTEDAGLDDWEAMASDEETEKVEGNKVHIEVKENPEEEEEEEEEEEEDEESEEEEEEEGESEGSEGDEEDEKVSDEKDSGKTLDKKPSKEMSSDSEYDSDDDRTKEERAYDKAKRRIEKRRLEHSKNVNTEKLRAPIICVLGHVDTGKTKILDKLRHTHVQDGEAGGITQQIGATNVPLEAINEQTKMIKNFDRENVRIPGMLIIDTPGHESFSNLRNRGSSLCDIAILVVDIMHGLEPQTIESINLLKSKKCPFIVALNKIDRLYDWKKSPDSDVAATLKKQKKNTKDEFEERAKAIIVEFAQQGLNAALFYENKDPRTFVSLVPTSAHTGDGMGSLIYLLVELTQTMLSKRLAHCEELRAQVMEVKALPGMGTTIDVILINGRLKEGDTIIVPGVEGPIVTQIRGLLLPPPMKELRVKNQYEKHKEVEAAQGVKILGKDLEKTLAGLPLLVAYKEDEIPVLKDELIHELKQTLNAIKLEEKGVYVQASTLGSLEALLEFLKTSEVPYAGINIGPVHKKDVMKASVMLEHDPQYAVILAFDVRIERDAQEMADSLGVRIFSAEIIYHLFDAFTKYRQDYKKQKQEEFKHIAVFPCKIKILPQYIFNSRDPIVMGVTVEAGQVKQGTPMCVPSKNFVDIGIVTSIEINHKQVDVAKKGQEVCVKIEPIPGESPKMFGRHFEATDILVSKISRQSIDALKDWFRDEMQKSDWQLIVELKKVFEII
6 | binds | Hyaluronan mediated motility receptor (protein, UniProt O75330 1-724) MSFPKAPLKRFNDPSGCAPSPGAYDVKTLEVLKGPVSFQKSQRFKQQKESKQNLNVDKDTTLPASARKVKSSESKESQKNDKDLKILEKEIRVLLQERGAQDRRIQDLETELEKMEARLNAALREKTSLSANNATLEKQLIELTRTNELLKSKFSENGNQKNLRILSLELMKLRNKRETKMRGMMAKQEGMEMKLQVTQRSLEESQGKIAQLEGKLVSIEKEKIDEKSETEKLLEYIEEISCASDQVEKYKLDIAQLEENLKEKNDEILSLKQSLEENIVILSKQVEDLNVKCQLLEKEKEDHVNRNREHNENLNAEMQNLKQKFILEQQEREKLQQKELQIDSLLQQEKELSSSLHQKLCSFQEEMVKEKNLFEEELKQTLDELDKLQQKEEQAERLVKQLEEEAKSRAEELKLLEEKLKGKEAELEKSSAAHTQATLLLQEKYDSMVQSLEDVTAQFESYKALTASEIEDLKLENSSLQEKAAKAGKNAEDVQHQILATESSNQEYVRMLLDLQTKSALKETEIKEITVSFLQKITDLQNQLKQQEEDFRKQLEDEEGRKAEKENTTAELTEEINKWRLLYEELYNKTKPFQLQLDAFEVEKQALLNEHGAAQEQLNKIRDSYAKLLGHQNLKQKIKHVVKLKDENSQLKSEVSKLRCQLAKKKQSETKLQEELNKVLGIKHFDPSKAFHHESKENFALKTPLKEGNTNCYRAPMECQESWK
7 | binds | BTB/POZ domain-containing protein KCTD15 (protein, UniProt Q96SI1 1-283) MPHRKERPSGSSLHTHGSTGTAEGGNMSRLSLTRSPVSPLAAQGIPLPAQLTKSNAPVHIDVGGHMYTSSLATLTKYPDSRISRLFNGTEPIVLDSLKQHYFIDRDGEIFRYVLSFLRTSKLLLPDDFKDFSLLYEEARYYQLQPMVRELERWQQEQEQRRRSRACDCLVVRVTPDLGERIALSGEKALIEEVFPETGDVMCNSVNAGWNQDPTHVIRFPLNGYCRLNSVQVLERLFQRGFSVAASCGGGVDSSQFSEYVLCREERRPQPTPTAVRIKQEPLD

These are yes or no findings as the source states them, for the method shown. Binding seen in cells or lysates may run through a third protein. Here binding means that the protein was enriched with, or labelled near, the bait; the list need not be complete.
